The results in this text go back to article PMC8643683, “Loss of full-length hnRNP R isoform impairs DNA damage response in motoneurons by inhibiting Yb1 recruitment to chromatin” (Nucleic Acids Research, 2021).

Amino acid sequences for entries named in this document (tags omitted).
UniProt P62960: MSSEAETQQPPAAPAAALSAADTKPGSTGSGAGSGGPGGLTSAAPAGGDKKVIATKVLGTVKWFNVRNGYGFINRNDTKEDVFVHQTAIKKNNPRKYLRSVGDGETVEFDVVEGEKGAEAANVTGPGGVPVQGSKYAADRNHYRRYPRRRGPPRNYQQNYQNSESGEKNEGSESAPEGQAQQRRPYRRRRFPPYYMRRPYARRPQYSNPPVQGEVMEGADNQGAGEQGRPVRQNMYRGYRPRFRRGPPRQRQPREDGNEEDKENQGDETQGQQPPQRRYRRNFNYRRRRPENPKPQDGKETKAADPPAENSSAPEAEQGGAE
UniProt P67809: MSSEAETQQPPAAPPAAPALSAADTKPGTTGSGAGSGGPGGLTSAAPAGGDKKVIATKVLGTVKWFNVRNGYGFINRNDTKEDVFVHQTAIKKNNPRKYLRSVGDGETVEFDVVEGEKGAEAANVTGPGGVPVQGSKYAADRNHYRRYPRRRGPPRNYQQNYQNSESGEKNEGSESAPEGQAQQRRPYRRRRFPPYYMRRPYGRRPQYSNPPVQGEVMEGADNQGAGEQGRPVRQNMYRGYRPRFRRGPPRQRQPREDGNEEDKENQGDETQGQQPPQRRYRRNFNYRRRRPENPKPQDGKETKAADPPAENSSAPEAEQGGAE

Assay [1] has as its target T1, HA-tagged hnRNP R-FL (mouse) (UniProt Q8VHM5).
T1 sequence: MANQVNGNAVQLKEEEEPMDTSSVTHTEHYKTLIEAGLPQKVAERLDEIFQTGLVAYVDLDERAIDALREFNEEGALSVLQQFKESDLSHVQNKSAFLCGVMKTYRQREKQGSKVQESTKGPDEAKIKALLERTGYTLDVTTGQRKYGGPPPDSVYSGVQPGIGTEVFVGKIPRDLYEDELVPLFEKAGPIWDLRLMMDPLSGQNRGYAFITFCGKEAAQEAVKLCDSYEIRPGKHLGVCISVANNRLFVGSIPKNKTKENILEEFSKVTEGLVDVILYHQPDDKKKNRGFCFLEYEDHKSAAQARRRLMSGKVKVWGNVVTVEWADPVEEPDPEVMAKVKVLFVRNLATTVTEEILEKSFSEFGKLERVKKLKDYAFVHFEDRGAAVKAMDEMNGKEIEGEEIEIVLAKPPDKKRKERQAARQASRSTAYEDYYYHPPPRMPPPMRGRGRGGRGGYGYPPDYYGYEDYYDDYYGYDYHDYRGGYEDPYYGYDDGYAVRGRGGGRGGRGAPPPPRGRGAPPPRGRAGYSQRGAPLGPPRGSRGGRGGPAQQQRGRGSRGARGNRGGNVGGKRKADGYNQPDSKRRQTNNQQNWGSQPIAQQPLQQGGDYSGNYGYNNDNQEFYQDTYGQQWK
As to the kind of experiment: co-IP; anti-HA beads, lysates of HEK293TN cells transfected with HA-tagged hnRNP R isoforms or deletion mutants; western blot for Yb1 and HA. Background: A western blot detects proteins with antibodies after separation by electrophoresis.

The target of assay [2] is Y-box binding protein 1 (Yb1), endogenous mouse (mouse (endogenous in primary mouse motoneurons and NSC-34 cells)) (UniProt P62960). Nature of the assay: co-IP; Yb1 immunoprecipitated (sc-101198) from lysates of NSC-34 cells, 0 Gy or 9 Gy, in the absence of Benzonase; western blot for hnRNP R.
Assay [3] has the same target. Nature of the assay: co-IP; Yb1 (sc-101198) or γ-H2AX (clone JBW301) immunoprecipitated on protein A or G Dynabeads from whole lysates of NSC-34 cells, 0 Gy or 9 Gy; IP lysis buffer (50 mM Tris-HCl pH 7.4, 140 mM NaCl, 1% Triton X-100) with 1 U Benzonase, overnight at 4°C; western blot.

These are yes or no findings as the source states them, for the method shown. Binding seen in cells or lysates may run through a third protein. Some entries that bind do so weakly or less than the wild type. For part of these data: Where a sequence is shown, tags or fusion partners need not be part of it.

For the molecule “Y-box binding protein 1 (Yb1), endogenous in HEK293TN cells (from UniProt P67809 1-324)”, in assay [1], the binding result was “binds”.

B1: hnRNP R-FL (full-length hnRNP R isoform), endogenous (natural protein, mouse (endogenous in NSC-34), UniProt Q8VHM5 1-632, looked up)
chain: MANQVNGNAVQLKEEEEPMDTSSVTHTEHYKTLIEAGLPQKVAERLDEIFQTGLVAYVDLDERAIDALREFNEEGALSVLQQFKESDLSHVQNKSAFLCGVMKTYRQREKQGSKVQESTKGPDEAKIKALLERTGYTLDVTTGQRKYGGPPPDSVYSGVQPGIGTEVFVGKIPRDLYEDELVPLFEKAGPIWDLRLMMDPLSGQNRGYAFITFCGKEAAQEAVKLCDSYEIRPGKHLGVCISVANNRLFVGSIPKNKTKENILEEFSKVTEGLVDVILYHQPDDKKKNRGFCFLEYEDHKSAAQARRRLMSGKVKVWGNVVTVEWADPVEEPDPEVMAKVKVLFVRNLATTVTEEILEKSFSEFGKLERVKKLKDYAFVHFEDRGAAVKAMDEMNGKEIEGEEIEIVLAKPPDKKRKERQAARQASRSTAYEDYYYHPPPRMPPPMRGRGRGGRGGYGYPPDYYGYEDYYDDYYGYDYHDYRGGYEDPYYGYDDGYAVRGRGGGRGGRGAPPPPRGRGAPPPRGRAGYSQRGAPLGPPRGSRGGRGGPAQQQRGRGSRGARGNRGGNVGGKRKADGYNQPDSKRRQTNNQQNWGSQPIAQQPLQQGGDYSGNYGYNNDNQEFYQDTYGQQWK
notes: hnRNP R, mouse, full-length 632-amino acid protein encoded by transcript variant 1, translated from the AUG in exon 2; source: endogenous, NSC-34 lysate
Consider B1, for which the binding result in assay [2] and in assay [3] was “binds” each time.
